Laboratory results from the supplement of paper PMC10849652.
Some of the results follow.

Protein sequences, listed by entry. Tags and fused reporters are not part of them. Lines headed by an entry give the natural chain unless they say otherwise; changes in a name come on top.
UniProt P30305: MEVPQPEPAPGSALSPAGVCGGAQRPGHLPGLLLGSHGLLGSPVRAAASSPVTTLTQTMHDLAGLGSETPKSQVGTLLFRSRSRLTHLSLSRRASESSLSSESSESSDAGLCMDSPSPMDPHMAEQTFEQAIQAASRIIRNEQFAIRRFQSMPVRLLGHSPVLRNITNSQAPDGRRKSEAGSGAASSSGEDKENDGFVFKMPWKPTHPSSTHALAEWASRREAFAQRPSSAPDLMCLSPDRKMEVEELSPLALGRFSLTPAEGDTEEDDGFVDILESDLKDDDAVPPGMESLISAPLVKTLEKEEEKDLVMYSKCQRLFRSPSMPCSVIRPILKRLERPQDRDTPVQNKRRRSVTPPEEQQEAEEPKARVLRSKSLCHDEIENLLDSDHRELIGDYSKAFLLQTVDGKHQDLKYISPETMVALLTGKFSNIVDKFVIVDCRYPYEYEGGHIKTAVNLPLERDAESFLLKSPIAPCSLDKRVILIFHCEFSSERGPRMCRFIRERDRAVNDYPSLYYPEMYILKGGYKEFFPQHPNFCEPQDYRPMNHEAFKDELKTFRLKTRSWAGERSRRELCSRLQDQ
UniProt O43822: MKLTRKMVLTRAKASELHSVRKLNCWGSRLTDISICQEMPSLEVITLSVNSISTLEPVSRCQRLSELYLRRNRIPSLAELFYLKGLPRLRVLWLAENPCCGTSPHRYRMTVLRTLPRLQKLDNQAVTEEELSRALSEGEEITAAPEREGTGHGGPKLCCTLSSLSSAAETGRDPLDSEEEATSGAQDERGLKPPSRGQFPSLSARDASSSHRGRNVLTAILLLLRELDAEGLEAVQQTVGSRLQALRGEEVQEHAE
UniProt Q9Y6K0: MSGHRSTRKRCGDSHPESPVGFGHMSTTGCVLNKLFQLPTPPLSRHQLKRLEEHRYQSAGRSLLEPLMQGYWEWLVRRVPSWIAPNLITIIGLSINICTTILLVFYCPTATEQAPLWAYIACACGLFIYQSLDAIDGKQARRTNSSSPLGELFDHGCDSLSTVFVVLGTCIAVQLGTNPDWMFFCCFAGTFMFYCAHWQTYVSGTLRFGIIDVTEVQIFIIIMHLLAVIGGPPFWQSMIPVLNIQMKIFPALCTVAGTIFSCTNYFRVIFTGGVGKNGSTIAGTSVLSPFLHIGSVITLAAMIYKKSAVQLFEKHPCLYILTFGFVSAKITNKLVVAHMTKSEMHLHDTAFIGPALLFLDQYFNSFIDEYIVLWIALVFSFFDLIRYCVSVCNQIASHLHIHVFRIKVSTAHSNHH
UniProt Q9NSP4: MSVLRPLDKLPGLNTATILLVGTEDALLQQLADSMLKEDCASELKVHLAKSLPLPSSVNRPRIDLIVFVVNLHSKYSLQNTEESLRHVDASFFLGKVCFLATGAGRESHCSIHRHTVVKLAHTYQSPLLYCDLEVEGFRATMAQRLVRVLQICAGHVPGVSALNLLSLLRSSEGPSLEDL
UniProt Q9H211: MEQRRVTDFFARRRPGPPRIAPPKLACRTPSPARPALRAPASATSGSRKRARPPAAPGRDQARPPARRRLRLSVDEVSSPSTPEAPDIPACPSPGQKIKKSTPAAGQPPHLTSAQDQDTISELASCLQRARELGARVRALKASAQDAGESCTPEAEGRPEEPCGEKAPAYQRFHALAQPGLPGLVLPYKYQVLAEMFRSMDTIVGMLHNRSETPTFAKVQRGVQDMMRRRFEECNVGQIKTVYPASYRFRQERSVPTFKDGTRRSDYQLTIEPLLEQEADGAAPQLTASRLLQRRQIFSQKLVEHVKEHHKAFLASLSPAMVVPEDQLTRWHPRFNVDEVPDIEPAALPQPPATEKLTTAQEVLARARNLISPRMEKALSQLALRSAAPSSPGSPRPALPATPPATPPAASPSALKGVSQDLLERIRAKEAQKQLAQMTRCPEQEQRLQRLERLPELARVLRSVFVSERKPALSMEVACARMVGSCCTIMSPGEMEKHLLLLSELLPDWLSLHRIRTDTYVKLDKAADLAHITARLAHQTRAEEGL
UniProt Q9P209, whole entry, looked up: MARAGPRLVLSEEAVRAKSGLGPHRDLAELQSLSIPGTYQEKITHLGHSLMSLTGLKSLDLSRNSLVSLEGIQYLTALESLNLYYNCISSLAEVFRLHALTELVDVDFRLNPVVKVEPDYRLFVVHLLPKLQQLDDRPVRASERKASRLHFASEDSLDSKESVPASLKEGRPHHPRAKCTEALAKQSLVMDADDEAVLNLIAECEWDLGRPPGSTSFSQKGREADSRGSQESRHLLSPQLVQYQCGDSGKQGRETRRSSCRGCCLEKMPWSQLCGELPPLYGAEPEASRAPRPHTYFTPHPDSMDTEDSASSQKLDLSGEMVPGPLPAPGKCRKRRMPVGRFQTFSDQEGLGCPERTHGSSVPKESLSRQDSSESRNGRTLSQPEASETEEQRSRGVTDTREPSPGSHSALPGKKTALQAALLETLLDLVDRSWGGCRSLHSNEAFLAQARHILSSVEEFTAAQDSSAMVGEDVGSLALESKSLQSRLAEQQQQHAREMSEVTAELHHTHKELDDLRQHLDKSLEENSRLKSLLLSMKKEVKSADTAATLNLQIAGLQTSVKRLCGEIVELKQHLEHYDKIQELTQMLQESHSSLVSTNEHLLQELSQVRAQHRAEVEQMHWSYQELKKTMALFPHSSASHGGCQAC
UniProt P07199: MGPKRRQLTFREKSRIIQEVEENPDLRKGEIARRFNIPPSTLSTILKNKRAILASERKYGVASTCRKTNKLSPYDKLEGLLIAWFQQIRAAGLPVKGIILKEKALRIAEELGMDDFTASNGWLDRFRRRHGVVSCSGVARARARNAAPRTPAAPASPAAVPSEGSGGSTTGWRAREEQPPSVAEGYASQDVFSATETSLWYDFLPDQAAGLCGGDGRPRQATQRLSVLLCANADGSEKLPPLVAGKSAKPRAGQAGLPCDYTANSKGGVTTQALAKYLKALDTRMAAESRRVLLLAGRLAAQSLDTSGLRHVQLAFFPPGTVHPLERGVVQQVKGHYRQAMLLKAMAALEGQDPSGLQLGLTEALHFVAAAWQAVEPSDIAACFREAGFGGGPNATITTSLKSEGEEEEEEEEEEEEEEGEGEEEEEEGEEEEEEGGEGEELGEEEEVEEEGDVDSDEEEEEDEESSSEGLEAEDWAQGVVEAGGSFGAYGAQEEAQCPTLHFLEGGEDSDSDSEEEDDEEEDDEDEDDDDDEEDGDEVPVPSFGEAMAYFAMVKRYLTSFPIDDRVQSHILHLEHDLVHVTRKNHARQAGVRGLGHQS
UniProt Q9BUX1: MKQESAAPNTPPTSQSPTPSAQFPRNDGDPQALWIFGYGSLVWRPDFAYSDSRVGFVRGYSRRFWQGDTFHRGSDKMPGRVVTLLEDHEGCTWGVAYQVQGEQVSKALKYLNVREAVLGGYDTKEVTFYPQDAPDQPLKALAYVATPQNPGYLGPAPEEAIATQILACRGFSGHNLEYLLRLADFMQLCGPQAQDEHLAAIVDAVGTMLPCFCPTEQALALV
UniProt A8MT69: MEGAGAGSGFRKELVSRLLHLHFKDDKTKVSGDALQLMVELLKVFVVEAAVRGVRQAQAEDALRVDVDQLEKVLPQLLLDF
UniProt P21926: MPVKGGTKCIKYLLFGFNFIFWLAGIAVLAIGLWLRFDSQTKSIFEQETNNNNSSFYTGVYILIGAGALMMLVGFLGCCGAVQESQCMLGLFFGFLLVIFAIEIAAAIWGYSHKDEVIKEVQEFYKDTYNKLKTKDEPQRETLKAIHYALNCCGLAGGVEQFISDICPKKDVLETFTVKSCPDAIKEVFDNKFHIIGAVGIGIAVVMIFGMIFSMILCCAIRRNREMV
UniProt Q5SW79: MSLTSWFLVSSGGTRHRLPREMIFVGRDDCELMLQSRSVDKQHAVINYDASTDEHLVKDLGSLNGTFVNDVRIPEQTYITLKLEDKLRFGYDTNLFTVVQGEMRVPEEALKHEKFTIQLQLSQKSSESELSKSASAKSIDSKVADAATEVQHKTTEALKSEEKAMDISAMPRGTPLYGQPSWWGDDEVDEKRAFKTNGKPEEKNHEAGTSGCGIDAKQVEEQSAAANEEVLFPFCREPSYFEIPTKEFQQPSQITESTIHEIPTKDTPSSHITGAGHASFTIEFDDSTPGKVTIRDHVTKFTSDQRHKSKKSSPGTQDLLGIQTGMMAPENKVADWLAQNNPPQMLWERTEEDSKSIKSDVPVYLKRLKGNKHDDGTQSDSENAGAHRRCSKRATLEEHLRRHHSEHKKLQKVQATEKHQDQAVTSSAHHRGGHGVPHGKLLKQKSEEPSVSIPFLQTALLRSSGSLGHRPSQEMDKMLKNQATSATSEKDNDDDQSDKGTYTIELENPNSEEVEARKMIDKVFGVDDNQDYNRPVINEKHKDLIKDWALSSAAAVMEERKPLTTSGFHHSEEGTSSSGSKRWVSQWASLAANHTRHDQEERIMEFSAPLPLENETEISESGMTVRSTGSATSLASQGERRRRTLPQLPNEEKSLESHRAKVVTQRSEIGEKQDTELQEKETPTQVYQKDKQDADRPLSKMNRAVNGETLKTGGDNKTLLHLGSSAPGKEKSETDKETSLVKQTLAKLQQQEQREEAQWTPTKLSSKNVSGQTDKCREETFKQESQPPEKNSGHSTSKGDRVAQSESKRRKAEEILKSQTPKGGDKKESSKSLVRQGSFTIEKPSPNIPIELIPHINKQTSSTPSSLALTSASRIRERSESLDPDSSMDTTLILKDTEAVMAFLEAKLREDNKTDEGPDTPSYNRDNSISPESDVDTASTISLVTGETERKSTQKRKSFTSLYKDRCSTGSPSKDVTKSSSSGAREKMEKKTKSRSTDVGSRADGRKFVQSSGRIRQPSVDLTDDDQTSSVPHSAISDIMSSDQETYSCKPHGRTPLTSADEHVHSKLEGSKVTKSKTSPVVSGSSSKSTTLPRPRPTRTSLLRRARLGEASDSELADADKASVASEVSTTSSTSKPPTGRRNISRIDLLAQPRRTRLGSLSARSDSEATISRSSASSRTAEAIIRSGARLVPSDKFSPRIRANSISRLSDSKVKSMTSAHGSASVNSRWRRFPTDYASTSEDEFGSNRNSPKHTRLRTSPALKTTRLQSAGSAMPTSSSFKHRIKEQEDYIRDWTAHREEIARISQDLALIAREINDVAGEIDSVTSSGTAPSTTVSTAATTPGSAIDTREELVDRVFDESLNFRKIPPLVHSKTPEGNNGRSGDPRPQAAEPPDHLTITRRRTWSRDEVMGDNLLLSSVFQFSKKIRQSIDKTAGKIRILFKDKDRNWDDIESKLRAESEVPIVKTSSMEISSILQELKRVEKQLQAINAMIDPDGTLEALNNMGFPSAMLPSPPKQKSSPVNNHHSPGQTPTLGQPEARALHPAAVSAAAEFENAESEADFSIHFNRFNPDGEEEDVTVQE
UniProt Q9BXL8: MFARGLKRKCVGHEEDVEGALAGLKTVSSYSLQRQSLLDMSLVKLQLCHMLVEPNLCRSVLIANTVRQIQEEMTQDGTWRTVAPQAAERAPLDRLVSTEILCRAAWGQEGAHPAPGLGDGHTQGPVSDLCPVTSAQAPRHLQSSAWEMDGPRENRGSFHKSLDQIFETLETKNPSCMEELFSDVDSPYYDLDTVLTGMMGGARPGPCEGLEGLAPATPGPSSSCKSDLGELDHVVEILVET
UniProt O76039: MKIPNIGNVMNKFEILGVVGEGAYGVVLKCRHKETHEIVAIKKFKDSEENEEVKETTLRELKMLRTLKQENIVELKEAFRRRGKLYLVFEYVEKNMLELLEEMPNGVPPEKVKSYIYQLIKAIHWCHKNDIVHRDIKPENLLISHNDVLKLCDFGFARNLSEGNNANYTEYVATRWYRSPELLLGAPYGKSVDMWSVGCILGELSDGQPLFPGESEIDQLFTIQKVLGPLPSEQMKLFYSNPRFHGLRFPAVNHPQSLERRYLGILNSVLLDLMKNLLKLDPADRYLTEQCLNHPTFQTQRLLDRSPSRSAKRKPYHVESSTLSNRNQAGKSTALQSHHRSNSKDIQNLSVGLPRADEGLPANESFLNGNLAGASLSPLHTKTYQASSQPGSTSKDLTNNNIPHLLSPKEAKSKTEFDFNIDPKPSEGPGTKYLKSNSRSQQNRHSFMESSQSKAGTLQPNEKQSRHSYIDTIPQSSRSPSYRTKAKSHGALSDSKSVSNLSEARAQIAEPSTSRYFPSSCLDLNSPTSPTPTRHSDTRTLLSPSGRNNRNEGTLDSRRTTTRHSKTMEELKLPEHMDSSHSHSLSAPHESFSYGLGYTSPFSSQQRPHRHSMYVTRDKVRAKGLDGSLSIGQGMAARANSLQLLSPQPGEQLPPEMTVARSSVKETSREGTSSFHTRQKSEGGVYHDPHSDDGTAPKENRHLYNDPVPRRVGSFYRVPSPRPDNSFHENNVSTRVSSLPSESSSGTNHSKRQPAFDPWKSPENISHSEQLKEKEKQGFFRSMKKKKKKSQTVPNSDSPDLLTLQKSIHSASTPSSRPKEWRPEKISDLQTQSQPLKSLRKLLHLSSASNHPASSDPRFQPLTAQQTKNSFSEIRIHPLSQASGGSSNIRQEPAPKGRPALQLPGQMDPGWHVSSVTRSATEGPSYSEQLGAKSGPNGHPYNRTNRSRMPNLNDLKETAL

Columns and labels:
Assay in all cases: log2 fold change, soluble protein after heating vs DMSO (PISA); higher = thermal stabilisation; K562 lysate, 10 uM; active = over 0.2 and 3.5 SD of the protein, either way, in both replicates (recomputed)
[1] = compound: Cc1cn(-c2cc(NC(=O)c3ccc(C)c(Nc4nccc(-c5cccnc5)n4)c3)cc(C(F)(F)F)c2)cn1 [nilotinib]
Outline: (§1)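 The values are log-two fold changes in thermal stability compared with solvent controls and come from duplicates. They were obtained by TMTpro 16plex LC-MS/MS, with channel sums equalised, on the supernatant after 21,000xg for 90 min. That supernatant came from crude K562 extract at 1 mg/mL protein treated with 10 μM compound for 30 min, heated for 3 min across 48°C-58°C, pooled and brought to 0.5% NP-40 at 4°C.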

[2] = compound: Cc1nc(Nc2n[nH]c3c2CN(C(=O)N[C@H](CN(C)C)c2ccccc2)C3(C)C)c2sccc2n1
Outline: as §1

[3] = compound: Cc1ncc(-c2ccnc(Nc3ccc(S(C)(=O)=O)cc3)n2)n1C(C)C
Outline: as §1

[4] = compound: Cn1cncc1[C@@](N)(c1ccc(Cl)cc1)c1ccc2c(c1)c(-c1cccc(Cl)c1)cc(=O)n2C [tipifarnib]
Outline: as §1

[5] = compound: NC1(c2ccc(-c3nc4ccn5c(=O)[nH]nc5c4cc3-c3ccccc3)cc2)CCC1
Outline: as §1

[6] = compound: O=C(CCCCCCC(=O)Nc1ccccc1)NO [vorinostat]
Outline: as §1

[7] = compound: O=C(O)c1ccc2c(c1)nc(Nc1cccc(Cl)c1)c1ccncc12 [silmitasertib]
Outline: as §1

[8] = compound: Cn1cc(CNCC2CCN(c3ncc(C(=O)NO)cn3)CC2)c2ccccc21 [quisinostat]
Outline: as §1

[9] = compound: NC(=O)Nc1cc(-c2cccc(F)c2)sc1C(=O)N[C@H]1CCCNC1
Outline: as §1

[10] = compound: NC(=O)c1cnc(N[C@@H]2CCCC[C@@H]2N)nc1Nc1cccc(-n2nccn2)c1
Outline: as §1

[11] = compound: O=C1NC(=O)C(c2cnc3ccccn23)=C1c1cn2c3c(cc(F)cc13)CN(C(=O)N1CCCCC1)CC2
Outline: as §1

[12] = compound: Cc1nc(Nc2ncc(C(=O)Nc3c(C)cccc3Cl)s2)cc(N2CCN(CCO)CC2)n1 [dasatinib]
Outline: as §1

[13] = compound: Cn1cc(-c2ccc3c(c2)CCN3C(=O)Cc2cccc(C(F)(F)F)c2)c2c(N)ncnc21
Outline: as §1

[14] = compound: NCC(=O)Nc1ccc(-n2nc(C(F)(F)F)cc2-c2ccc3c(ccc4ccccc43)c2)cc1
Outline: as §1

[15] = compound: c1cn2cc(-c3ccc4cn[nH]c4c3)nc(Nc3ccc(N4CCOCC4)cc3)c2n1 [entospletinib]
Outline: as §1

Measured: log2 fold change

CENPO (UniProt Q9BU64)
inactive: [1] 0.222 | [2] -0.321 | [3] -0.199 | [4] -0.063 | [5] 0.175 | [6] 0.028 | [7] 0.079

CDC42SE1 (UniProt Q9NRR8)
inactive: [1] 0.145 | [2] 0.373 | [3] -0.303 | [8] 0.023 | [4] 0.027 | [9] 0.024 | [10] 0.088 | [11] -0.044

CDCA8 (UniProt Q53HL2)
inactive: [1] 0.03 | [2] -0.002 | [12] 0.012 | [3] -0.277 | [13] -0.011 | [4] 0.046 | [5] -0.051 | [14] 0.066 | [6] 0.13 | [7] -0.093 | [15] 0.112

CEP152 (UniProt O94986)
active: [8] -0.413
inactive: [1] -0.058 | [2] 0.108 | [12] 0.012 | [3] -0.014 | [13] -0.017 | [4] 0.02 | [9] 0.058 | [5] 0.112 | [14] 0.025 | [6] -0.167 | [7] 0.039 | [11] 0.089 | [15] -0.04

CDC25B (UniProt P30305)
inactive: [1] -0.025 | [2] -0.047 | [12] 0.033 | [3] 0.002 | [13] 0.031 | [8] -0.035 | [4] 0.061 | [9] -0.049 | [10] 0.121 | [5] 0.031 | [14] -0.005 | [6] -0.021 | [7] -0.029 | [11] -0.003 | [15] -0.012

CFAP410 (UniProt O43822)
inactive: [1] -0.1 | [2] 0.033 | [3] -0.143 | [8] -0.105 | [4] -0.138 | [9] 0.082 | [5] 0.04 | [14] 0.001 | [6] -0.147 | [7] -0.081 | [11] -0.043 | [15] 0.068

CEPT1 (UniProt Q9Y6K0)
inactive: [1] -0.053 | [2] -0.015 | [12] -0.018 | [3] 0.028 | [13] 0.06 | [8] -0.021 | [4] -0.068 | [9] 0.028 | [10] -0.008 | [5] -0.094 | [14] -0.037 | [6] 0.103 | [7] -0.016 | [11] 0.029 | [15] -0.016

CENPM (UniProt Q9NSP4)
inactive: [1] -0.188 | [2] 0.172 | [12] -0.034 | [3] 0.106 | [13] -0.003 | [8] -0.26 | [4] -0.176 | [9] 0.007 | [5] -0.007 | [6] -0.069 | [7] -0.019 | [11] 0.281 | [15] 0.094

CERS5 (UniProt Q8N5B7)
inactive: [12] 0.05 | [13] -0.046 | [8] -0.173 | [9] 0.031 | [10] 0.027 | [5] 0.105 | [6] 0.057 | [7] 0.006 | [11] 0.01 | [15] -0.001

CEP85L isoform 4 (UniProt Q5SZL2)
inactive: [8] -0.047 | [9] 0.029 | [5] -0.129 | [14] 0.025 | [6] -0.112 | [7] 0.017 | [11] -0.016

CDT1 (UniProt Q9H211)
inactive: [12] 0.036 | [13] -0.034 | [8] 0.013 | [9] 0.034 | [5] 0.058 | [6] -0.295 | [7] 0.009 | [11] 0.052 | [15] -0.046

CEBPB (UniProt P17676)
inactive: [12] 0.007 | [13] -0.136 | [8] -0.053 | [9] 0.011 | [5] 0 | [14] -0.023 | [6] -0.126 | [7] -0.022 | [11] 0.127 | [15] 0.028

CEP170B (UniProt Q9Y4F5)
inactive: [12] -0.061 | [13] -0.014 | [8] -0.016 | [9] -0.069 | [10] -0.211 | [14] 0.049 | [11] 0 | [15] -0.107

CDKN3 (UniProt Q16667)
inactive: [15] -0.036

CEP164 (UniProt Q9UPV0)
inactive: [10] 0.033 | [5] -0.092 | [6] -0.007 | [7] 0.022

CEP72 (UniProt Q9P209)
inactive: [12] -0.086 | [13] 0.029 | [5] 0.056 | [6] -0.026 | [7] 0.12

CEP128 (UniProt Q6ZU80)
inactive: [12] -0.168 | [13] 0.041 | [14] 0.017 | [15] -0.081

CDC37 (UniProt K7EL68)
inactive: [8] -0.161 | [9] 0.007 | [14] 0.001 | [11] 0.005

3 successive records from above:
CEP72 (UniProt Q9P209)
inactive: [12] -0.086 | [13] 0.029 | [5] 0.056 | [6] -0.026 | [7] 0.12

CEP128 (UniProt Q6ZU80)
inactive: [12] -0.168 | [13] 0.041 | [14] 0.017 | [15] -0.081

CDC37 (UniProt K7EL68)
inactive: [8] -0.161 | [9] 0.007 | [14] 0.001 | [11] 0.005

Continuation.

CFLAR (UniProt O15519)
inactive: [12] 0.034 | [13] 0.115 | [8] -0.064 | [9] 0.074 | [14] 0.006 | [11] 0.001 | [15] 0.011

CENPB (UniProt P07199)
inactive: [15] 0.292

CENPT (UniProt Q96BT3)
inactive: [5] 0.265 | [6] 0.026 | [7] -0.153

CEP78 isoform 2 (UniProt Q5JTW2)
inactive: [12] 0.118 | [13] 0.058 | [8] 0.037 | [9] -0.058 | [5] 0.13 | [6] -0.071 | [7] 0.054 | [11] -0.068

CHAC1 (UniProt Q9BUX1)
inactive: [12] -0.061 | [13] -0.049 | [8] -0.005 | [9] 0.062 | [14] -0.362 | [11] -0.084

CDNF (UniProt Q49AH0)
inactive: [8] 0.222 | [9] -0.054 | [10] 0.071 | [11] 0.092 | [15] -0.051

CENPX (UniProt A8MT69)
inactive: [8] -0.064 | [9] 0.12 | [11] -0.128

CEP57 (UniProt Q86XR8)
inactive: [5] 0.229 | [6] 0.029 | [7] -0.011 | [15] -0.095

CDADC1 (UniProt Q9BWV3)
inactive: [8] -0.007 | [9] -0.021 | [11] -0.052

CELSR2 (UniProt Q9HCU4)
inactive: [5] 0.287 | [6] 0.221 | [7] 0.142

CFAP97 (UniProt Q9P2B7)
inactive: [12] 0.143 | [13] 0.144 | [8] -0.131 | [9] -0.074 | [5] 0.02 | [14] -0.172 | [6] 0.013 | [7] -0.017 | [11] -0.062

CDC42EP2 (UniProt O14613)
inactive: [8] 0.035 | [9] 0.036 | [14] -0.139 | [11] -0.022

CD9 (UniProt P21926)
inactive: [12] 0.019 | [13] 0.03 | [14] -0.02 | [15] 0.12

CFL1 (UniProt E9PQB7)
inactive: [8] 0.073 | [9] 0.049 | [11] -0.068

CEP170 isoform 2 (UniProt Q5SW79)
inactive: [12] -0.035 | [13] -0.072 | [15] -0.098

CDPF1 (UniProt Q6NVV7)
inactive: [8] -0.079 | [9] 0 | [11] -0.059

CDCA4 (UniProt Q9BXL8)
inactive: [12] -0.032 | [13] -0.054 | [14] 0.039

CDKL5 (UniProt O76039)
inactive: [12] -0.095 | [13] 0.188 | [8] -0.283 | [9] -0.002 | [10] 0.069 | [14] 0.037 | [11] 0.011 | [15] 0.017

CEBPG (UniProt P53567)
inactive: [8] -0.001 | [9] -0.007 | [10] -0.072 | [11] 0.139

CEP68 (UniProt Q76N32)
inactive: [12] 0.1 | [13] -0.086 | [5] -0.027 | [6] -0.094 | [7] 0.021 | [15] -0.172

CDAN1 (UniProt H3BPZ6)
inactive: [8] 0.093 | [9] 0.056 | [11] 0.006

CFL1 (UniProt E9PP50)
inactive: [10] -0.259 | [15] 0.225

CENPC (UniProt Q03188)
inactive: [12] -0.044 | [13] -0.063 | [5] -0.257 | [6] 0.069 | [7] 0 | [15] 0.006

CEP162 (UniProt Q5TB80)
inactive: [8] -0.124 | [9] 0.077 | [11] 0.192
